# Library screen at single concentrations

Protein sequences, listed by entry. Tags and fused reporters are not part of them.
UniProt I6X8D2, whole entry: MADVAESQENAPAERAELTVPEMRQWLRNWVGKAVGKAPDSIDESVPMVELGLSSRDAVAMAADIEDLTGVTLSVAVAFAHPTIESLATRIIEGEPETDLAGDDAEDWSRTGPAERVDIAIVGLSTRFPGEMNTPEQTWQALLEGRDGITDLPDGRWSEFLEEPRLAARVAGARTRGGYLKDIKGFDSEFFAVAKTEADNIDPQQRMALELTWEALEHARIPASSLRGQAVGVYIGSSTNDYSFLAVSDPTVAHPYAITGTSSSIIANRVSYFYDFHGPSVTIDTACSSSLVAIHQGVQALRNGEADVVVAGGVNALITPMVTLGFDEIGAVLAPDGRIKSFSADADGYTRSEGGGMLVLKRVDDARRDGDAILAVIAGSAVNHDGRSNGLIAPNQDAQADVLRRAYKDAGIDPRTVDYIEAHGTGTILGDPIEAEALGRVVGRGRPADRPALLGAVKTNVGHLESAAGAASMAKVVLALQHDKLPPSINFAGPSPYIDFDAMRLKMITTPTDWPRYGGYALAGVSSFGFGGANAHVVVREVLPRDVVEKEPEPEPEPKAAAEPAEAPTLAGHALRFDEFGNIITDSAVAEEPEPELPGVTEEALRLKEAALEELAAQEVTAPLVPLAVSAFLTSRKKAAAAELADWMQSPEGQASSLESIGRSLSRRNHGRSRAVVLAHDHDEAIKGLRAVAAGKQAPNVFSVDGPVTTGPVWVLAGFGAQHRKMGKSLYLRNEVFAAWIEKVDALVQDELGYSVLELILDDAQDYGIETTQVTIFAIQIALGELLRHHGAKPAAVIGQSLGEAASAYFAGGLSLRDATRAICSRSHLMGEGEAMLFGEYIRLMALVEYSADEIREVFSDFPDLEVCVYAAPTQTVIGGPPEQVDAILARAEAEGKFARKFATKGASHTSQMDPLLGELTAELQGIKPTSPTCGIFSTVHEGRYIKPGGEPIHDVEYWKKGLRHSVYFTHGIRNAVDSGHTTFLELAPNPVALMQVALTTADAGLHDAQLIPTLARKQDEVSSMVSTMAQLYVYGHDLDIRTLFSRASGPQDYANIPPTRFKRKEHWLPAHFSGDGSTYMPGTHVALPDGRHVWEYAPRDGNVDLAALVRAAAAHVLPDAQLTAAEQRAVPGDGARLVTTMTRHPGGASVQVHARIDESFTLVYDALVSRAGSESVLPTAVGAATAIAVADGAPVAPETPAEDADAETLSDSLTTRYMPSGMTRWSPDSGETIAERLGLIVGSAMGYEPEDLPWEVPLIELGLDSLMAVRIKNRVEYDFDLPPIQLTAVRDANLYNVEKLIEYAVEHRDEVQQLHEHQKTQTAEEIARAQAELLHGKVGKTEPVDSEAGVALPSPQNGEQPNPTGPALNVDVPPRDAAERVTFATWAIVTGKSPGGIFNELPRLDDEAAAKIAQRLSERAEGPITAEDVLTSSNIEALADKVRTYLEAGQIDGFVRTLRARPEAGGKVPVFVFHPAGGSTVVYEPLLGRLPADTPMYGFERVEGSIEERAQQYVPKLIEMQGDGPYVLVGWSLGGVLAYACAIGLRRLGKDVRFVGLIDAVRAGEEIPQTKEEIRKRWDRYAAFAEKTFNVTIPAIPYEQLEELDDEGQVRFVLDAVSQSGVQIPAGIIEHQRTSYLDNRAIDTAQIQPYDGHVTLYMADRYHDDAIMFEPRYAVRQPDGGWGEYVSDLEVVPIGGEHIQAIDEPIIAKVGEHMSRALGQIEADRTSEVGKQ
UniProt P9WPC5, whole entry: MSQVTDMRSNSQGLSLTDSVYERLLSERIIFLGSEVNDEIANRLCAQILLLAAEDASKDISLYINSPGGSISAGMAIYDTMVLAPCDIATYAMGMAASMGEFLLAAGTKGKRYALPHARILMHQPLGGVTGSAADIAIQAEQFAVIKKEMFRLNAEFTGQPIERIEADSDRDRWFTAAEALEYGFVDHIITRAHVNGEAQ
UniProt P9WPC3, whole entry partner: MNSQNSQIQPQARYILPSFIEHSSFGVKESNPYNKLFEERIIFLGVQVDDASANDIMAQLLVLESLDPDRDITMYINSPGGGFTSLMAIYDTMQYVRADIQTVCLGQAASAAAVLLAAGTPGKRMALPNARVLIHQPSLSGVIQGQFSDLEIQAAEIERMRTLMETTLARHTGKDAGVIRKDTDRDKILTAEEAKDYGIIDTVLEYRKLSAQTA

The values are deposited in ChEMBL (CHEMBL3988442, “University of Dundee, Small-Polar-MMV Screening Library” (2021)).

Leishmania in macrophages: 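Cell assay of Leishmania donovani living inside macrophages; the read-out is not stated. Tested at 30 µM. The record gives no direction; compounds that gave an IC50 in retests scored well above the rest, so higher reads as stronger inhibition. Of about 69,000 compounds tested this way, about 1,000 (1.5%) reached 50% or more in at least one test.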
Pks13 thioesterase: 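Polyketide synthase Pks13, Mycobacterium tuberculosis (UniProt I6X8D2). Enzyme assay of the thioesterase domain of polyketide synthase 13; the read-out is not stated. Compounds at 30 µM. The record gives no direction; the compounds picked for IC50 retests had high values, so higher reads as stronger inhibition. Of about 67,000 compounds tested this way, about 300 (0.46%) reached 50% or more in at least one test.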
ClpP1P2: 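Protease assay of ClpP1P2, read by the AMC dye that it sets free. Target: ClpP1P2, Mycobacterium tuberculosis (UniProt P9WPC5 and UniProt P9WPC3). Concentration: 50 µM. Higher reads as stronger inhibition, judged from the few compounds that gave an IC50. Most other retested compounds had strongly negative values. About 69,000 compounds were tested under these conditions; 0.015% (about 10) showed 50% or more at least once.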
T. brucei: 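Whole-parasite assay of Trypanosoma brucei over 72 hours; the read-out is not stated. Tested at 30 µM. The record gives no direction; compounds that gave an IC50 in retests scored well above the rest, so higher reads as stronger inhibition. Values scatter widely below zero; nearly all retest evidence comes from the higher of the two concentrations used. Size under these conditions: about 64,000 compounds, about 940 of them at 50% or above in at least one test.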

Each number is a percent effect as filed. How 0% and 100% were set is not recorded. Most values in the screen are low, and negative values occur. Compounds were drawn at random from those tested, without regard to their results. A dash means the value is not listed here; it may have been measured.

| # | compound | Leishmania in macrophages | Pks13 thioesterase | ClpP1P2 | T. brucei |
|---|---|---|---|---|---|
| 1 | `NC(=O)N1CC[C@H](O)[C@@H]1Cc1cccnc1` | - | -13.79 | -9.259 | - |
| 2 | `O=C(O)C(F)(F)F.O=C(O)C(F)(F)F.[H][C@@]12C[C@@H](Oc3cncnc3)CN1CCN(Cc1csc(C)n1)C2` | 12.17 | - | - | -64.45 |
| 3 | `CN(Cc1cccnc1)C1CC2(CCN(c3ccccn3)CC2)C1` | - | -24.55 | 9.306 | - |
| 4 | `CN(C)c1cc(CNC(=O)c2c(F)cccc2F)ccn1` | 31.52 | 7.937 | -25.08 | 1.74 |
| 5 | `COc1ccc(-c2nc(CNC3CCc4nc(C)nn4C3)no2)cc1` (stereo not drawn) | -13.91 | 26.42 | -29.04 | -14.94 |
| 6 | `N#CC(NC(=O)CNC(=O)c1ccccc1)c1ccsc1` (stereo not drawn) | 18.63 | -7.302 | -34.21 | -9.472 |
| 7 | `Cc1cc(=O)n2nc(Oc3cccc(C(N)=O)c3)sc2n1` | 43.89 | -14.43 | 5.981 | -16.62 |
| 8 | `OCC1(Cc2ccccc2F)CCCN(c2ccc3ccccc3n2)C1` (stereo not drawn) | 23.98 | -0.148 | 4.368 | 5.578 |
| 9 | `CCS(=O)(=O)N1CCCC(c2nccn2Cc2cccnc2)C1` (stereo not drawn) | -9.839 | -20.81 | 10.25 | -18.03 |
| 10 | `Cc1nn(CC(C)C)c(N(C)C)c1CNCc1cc2ccccc2[nH]1` | 46.05 | -8.354 | 6.144 | -3.403 |
| 11 | `CCC(=O)NCC(=O)NCC1CCN(c2cc(Cl)ccc2C)C1` (stereo not drawn) | 24.15 | -2.86 | -15.16 | 11.73 |
| 12 | `COCc1cccc(S(=O)(=O)NCc2cnn(C)c2C)c1` | 25.29 | -5.901 | 0.4151 | -1.627 |
| 13 | `FC(F)(F)c1cccc(OC2CCN(Cc3ccccn3)CC2)c1` | -24.32 | -2.538 | 0.3725 | 10.82 |
| 14 | `O=C(O)C(F)(F)F.O=C(O)C(F)(F)F.O=C(O)C(F)(F)F.c1ccc(Cn2cc3c(n2)C(CNCc2ccco2)OCC3)nc1` (stereo not drawn) | 27.75 | - | - | -36.42 |
| 15 | `O=C(O)C(F)(F)F.[H][C@]12CN(Cc3ccncc3)C(=O)[C@@]1([H])CN(c1ncccn1)C2` | -22.09 | - | - | -46.28 |
| 16 | `Cc1ncc2c(c1-c1noc(-c3cscn3)n1)CCNC2` | -9.596 | -12.64 | -11.03 | 9.249 |
| 17 | `CCc1ccc(C(CNC(=O)c2c(C)noc2C)N(C)C)cc1` (stereo not drawn) | -0.01889 | -57.16 | -22.08 | - |
| 18 | `CC(NC(=O)N1CCc2ccccc2C1)c1nncn1C` (stereo not drawn) | 7.479 | -29.12 | 1.174 | -53.87 |
| 19 | `CNC(=O)[C@H]1CO[C@H]2CCN(c3ncc(F)cn3)C[C@H]2C1` | - | -5.147 | -15.25 | - |
| 20 | `CNC(=O)c1cc2c(nc1N(C)C)CCN(c1ncc(F)cn1)CC2` | - | -7.356 | 2.257 | - |
| 21 | `CC(C)N1[C@H](Cn2cccn2)C[C@@H]2CN(C3CCOCC3)CC[C@@H]21` | - | -20.05 | -1.372 | - |
| 22 | `COc1ccccc1[C@@H]1CN(C(=O)Cc2csc(C)n2)C[C@H]1C(=O)O` | -22.1 | -6.29 | -7.646 | -18.68 |
| 23 | `Cc1ccc(=O)n(CC(=O)N2CCCC(c3nc(C)c(C)s3)C2)n1` (stereo not drawn) | 18.54 | -34.78 | 7.059 | 4.932 |
| 24 | `CC1CN(C(=O)c2ccn(C)c(=O)c2)c2ccccc2NC1=O` (stereo not drawn) | 10.87 | -16.43 | -12.33 | -0.8821 |
| 25 | `CS(=O)(=O)NCC1CCCN(Cc2ccc(F)c3cccnc23)C1` (stereo not drawn) | 44.81 | -10.67 | 6.357 | -23.86 |
| 26 | `Cc1cnccc1N1CCCN(C(=O)CCn2ccnc2C)CC1` | 27.42 | 7.545 | -28.38 | -11.88 |
| 27 | `CN1CC(=O)N(C2CCC2)Cc2c(NC3CCNCC3)ncnc21` | 2.277 | 2.17 | -17.95 | - |
| 28 | `COCCC1COC2(CCN(C(=O)C3CCCCC3)CC2)C1` (stereo not drawn) | 8.944 | -17.93 | 4.444 | -13.56 |
| 29 | `COc1ccc(-c2nc(CN3CCCS3(=O)=O)co2)cc1` | -24.15 | -7.795 | -10.2 | -21.72 |
| 30 | `O=C(c1ccc2c(c1)OCO2)N1CCC(C(=O)O)(c2ccccc2)CC1` | 0.8951 | -16.49 | -8.941 | - |
| 31 | `Cc1ccc(SCCN(C)C(=O)c2cn([C@H]3CC[C@@H](N)CC3)nn2)cc1` | -26.18 | -10.47 | 14.71 | -119 |
| 32 | `CC(C)(C)n1nc(C2CC2)cc1C(=O)NCC1(C(N)=O)CCOCC1` | -8.224 | -4.179 | -4.11 | -19.78 |
| 33 | `O=C(O)c1ccc2ccc(N3CCN(CC4CC4)CC3)n2c1` | 12.34 | 9.486 | 7.538 | 6.527 |
| 34 | `O=C(O)C(F)(F)F.O=C(O)C(F)(F)F.[H][C@]12CCN(CC3CCOCC3)[C@@]1([H])CCC(COCc1cccnc1)O2` (stereo partly drawn) | 42.79 | - | - | -15.17 |
| 35 | `[H][C@@]12CCCO[C@]1([H])[C@@H](OC)CN2Cc1ccccc1F` | 3.312 | - | - | -62.37 |
| 36 | `CSc1nc(N)cc(N2C[C@@H]3CC[C@H](C2)N(CC2CC2)C3=O)n1` | - | -31.72 | 10.69 | - |
| 37 | `Cc1ccc(N2CC[C@H]3OCC[C@@]3(C(=O)N3CCCO3)C2)nn1` | - | -33.99 | 3.244 | - |
| 38 | `Cc1nc2cc(C(=O)N3C[C@@H](NS(C)(=O)=O)[C@H](C(C)C)C3)ccc2[nH]1` | -19.11 | -0.1473 | -11.76 | -9.64 |
| 39 | `CCC(Cn1ccnc1)n1cnc2c(C)csc2c1=O` (stereo not drawn) | -48.32 | -7.036 | -6.904 | -8.897 |

For reference, 3 entries once more:

compound	Leishmania in macrophages	Pks13 thioesterase	ClpP1P2	T. brucei
CNC(=O)[C@H]1CO[C@H]2CCN(c3ncc(F)cn3)C[C@H]2C1	-	-5.147	-15.25	-
Cc1cc(=O)n2nc(Oc3cccc(C(N)=O)c3)sc2n1	43.89	-14.43	5.981	-16.62
O=C(O)C(F)(F)F.O=C(O)C(F)(F)F.O=C(O)C(F)(F)F.c1ccc(Cn2cc3c(n2)C(CNCc2ccco2)OCC3)nc1 (stereo not drawn)	27.75	-	-	-36.42